In PMC12900774:
No constants are given. Whether binding was seen depends on the method and setting. In cells and extracts the contact can be indirect. Some entries that bind do so weakly or less than the wild type. Each block holds one binder with its values, some of them ahead of it.

The chains behind the UniProt entries cited, without tags or fusion partners.
UniProt Q01844: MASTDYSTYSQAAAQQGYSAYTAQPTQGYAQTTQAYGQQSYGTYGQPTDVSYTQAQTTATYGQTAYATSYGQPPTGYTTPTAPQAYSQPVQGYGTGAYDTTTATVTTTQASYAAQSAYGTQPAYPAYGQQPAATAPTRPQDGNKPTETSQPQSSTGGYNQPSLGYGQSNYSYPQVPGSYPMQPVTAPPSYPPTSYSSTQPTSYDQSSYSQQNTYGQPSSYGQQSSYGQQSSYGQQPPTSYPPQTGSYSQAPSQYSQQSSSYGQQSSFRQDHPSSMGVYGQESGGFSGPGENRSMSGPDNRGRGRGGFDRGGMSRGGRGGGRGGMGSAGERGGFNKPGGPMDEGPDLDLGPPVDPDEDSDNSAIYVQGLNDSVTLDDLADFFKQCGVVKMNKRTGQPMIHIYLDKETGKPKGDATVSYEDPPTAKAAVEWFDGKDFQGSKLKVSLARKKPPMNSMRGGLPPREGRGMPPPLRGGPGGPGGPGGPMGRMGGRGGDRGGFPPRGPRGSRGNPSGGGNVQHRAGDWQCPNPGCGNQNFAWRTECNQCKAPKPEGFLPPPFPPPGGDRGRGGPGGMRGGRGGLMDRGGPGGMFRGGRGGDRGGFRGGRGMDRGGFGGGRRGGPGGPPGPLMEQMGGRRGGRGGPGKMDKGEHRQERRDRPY

Target: Ewing Sarcoma breakpoint region 1/EWS RNA binding protein 1 (EWSR1) (human (endogenous in NCM460)) (UniProt Q01844)
Experiment: co-IP; lysate in IP buffer (50 mM Tris-HCl pH 7.4, 150 mM NaCl, 1% NP-40), anti-EWSR1 antibody or normal IgG overnight at 4°C, protein A/G magnetic beads, western blot; cells with or without overexpression of 5'-tiRNA-Lys

- binding: binds
B1: DROSHA (protein, UniProt Q9NRR4 1-1374)
chain: MMQGNTCHRMSFHPGRGCPRGRGGHGARPSAPSFRPQNLRLLHPQQPPVQYQYEPPSAPSTTFSNSPAPNFLPPRPDFVPFPPPMPPSAQGPLPPCPIRPPFPNHQMRHPFPVPPCFPPMPPPMPCPNNPPVPGAPPGQGTFPFMMPPPSMPHPPPPPVMPQQVNYQYPPGYSHHNFPPPSFNSFQNNPSSFLPSANNSSSPHFRHLPPYPLPKAPSERRSPERLKHYDDHRHRDHSHGRGERHRSLDRRERGRSPDRRRQDSRYRSDYDRGRTPSRHRSYERSRERERERHRHRDNRRSPSLERSYKKEYKRSGRSYGLSVVPEPAGCTPELPGEIIKNTDSWAPPLEIVNHRSPSREKKRARWEEEKDRWSDNQSSGKDKNYTSIKEKEPEETMPDKNEEEEEELLKPVWIRCTHSENYYSSDPMDQVGDSTVVGTSRLRDLYDKFEEELGSRQEKAKAARPPWEPPKTKLDEDLESSSESECESDEDSTCSSSSDSEVFDVIAEIKRKKAHPDRLHDELWYNDPGQMNDGPLCKCSAKARRTGIRHSIYPGEEAIKPCRPMTNNAGRLFHYRITVSPPTNFLTDRPTVIEYDDHEYIFEGFSMFAHAPLTNIPLCKVIRFNIDYTIHFIEEMMPENFCVKGLELFSLFLFRDILELYDWNLKGPLFEDSPPCCPRFHFMPRFVRFLPDGGKEVLSMHQILLYLLRCSKALVPEEEIANMLQWEELEWQKYAEECKGMIVTNPGTKPSSVRIDQLDREQFNPDVITFPIIVHFGIRPAQLSYAGDPQYQKLWKSYVKLRHLLANSPKVKQTDKQKLAQREEALQKIRQKNTMRREVTVELSSQGFWKTGIRSDVCQHAMMLPVLTHHIRYHQCLMHLDKLIGYTFQDRCLLQLAMTHPSHHLNFGMNPDHARNSLSNCGIRQPKYGDRKVHHMHMRKKGINTLINIMSRLGQDDPTPSRINHNERLEFLGDAVVEFLTSVHLYYLFPSLEEGGLATYRTAIVQNQHLAMLAKKLELDRFMLYAHGPDLCRESDLRHAMANCFEALIGAVYLEGSLEEAKQLFGRLLFNDPDLREVWLNYPLHPLQLQEPNTDRQLIETSPVLQKLTEFEEAIGVIFTHVRLLARAFTLRTVGFNHLTLGHNQRMEFLGDSIMQLVATEYLFIHFPDHHEGHLTLLRSSLVNNRTQAKVAEELGMQEYAITNDKTKRPVALRTKTLADLLESFIAALYIDKDLEYVHTFMNVCFFPRLKEFILNQDWNDPKSQLQQCCLTLRTEGKEPDIPLYKTLQTVGPSHARTYTVAVYFKGERIGCGKGPSIQQAEMGAAMDALEKYNFPQMAHQKRFIERKYRQELKEMRWEREHQEREPDETEDIKK

- binding: binds
B2: DGCR8 (protein, UniProt Q8WYQ5 1-773)
chain: METDESPSPLPCGPAGEAVMESRARPFQALPREQSPPPPLQTSSGAEVMDVGSGGDGQSELPAEDPFNFYGASLLSKGSFSKGRLLIDPNCSGHSPRTARHAPAVRKFSPDLKLLKDVKISVSFTESCRSKDRKVLYTGAERDVRAECGLLLSPVSGDVHACPFGGSVGDGVGIGGESADKKDEENELDQEKRVEYAVLDELEDFTDNLELDEEGAGGFTAKAIVQRDRVDEEALNFPYEDDFDNDVDALLEEGLCAPKKRRTEEKYGGDSDHPSDGETSVQPMMTKIKTVLKSRGRPPTEPLPDGWIMTFHNSGVPVYLHRESRVVTWSRPYFLGTGSIRKHDPPLSSIPCLHYKKMKDNEEREQSSDLTPSGDVSPVKPLSRSAELEFPLDEPDSMGADPGPPDEKDPLGAEAAPGALGQVKAKVEVCKDESVDLEEFRSYLEKRFDFEQVTVKKFRTWAERRQFNREMKRKQAESERPILPANQKLITLSVQDAPTKKEFVINPNGKSEVCILHEYMQRVLKVRPVYNFFECENPSEPFGASVTIDGVTYGSGTASSKKLAKNKAARATLEILIPDFVKQTSEEKPKDSEELEYFNHISIEDSRVYELTSKAGLLSPYQILHECLKRNHGMGDTSIKFEVVPGKNQKSEYVMACGKHTVRGWCKNKRVGKQLASQKILQLLHPHVKNWGSLLRMYGRESSKMVKQETSDKSVIELQQYAKKNKPNLHILSKLQEEMKRLAEEREETRKKPKMSIVASAQPGGEPLCTVDV
